Results reported in patent publication US8852556B2, “Animal model for evaluating vasomotor response in vivo” (Janssen Research & Development LLC, priority 2008, dated 2014).
For at least one compound, name, drawing or mass did not settle the structure.

System: central ear artery of a rabbit
Assay: Rabbit central ear artery (CEA) vasomotor response, lumen diameter and area by ultrasonic imaging
Format: in vivo
Experimental: A group of six rabbits was anesthetized with a mixture of ketamine (50 mg/kg)/xylazine ([…]) administered intramuscularly and placed on a warming pad to maintain body temperature. Rabbit ear pinnae were shaved and depilitated using an over-the-counter depilatory agent. A segment of about 2 cm of the dorsal surface over the CEA on the right ear was coated with warmed ultrasonic gel. The baseline diameter and area of the rabbit's CEA were evaluated using a 23.5 MHz ultrasonic probe (model RMV 708). The images were recorded on a VISUALSONICS VEVO 600 system where the CEA lumen diameters and areas were subsequently measured. The vessel lumen diameter and area were expressed as mean and standard error of the mean (SEM). […]
In another group, six adult New Zealand male rabbits (2.5-3.5 kg) were dosed orally (gavage with feeding tube) with the Imwitor/Cremophor/Water vehicle for 4 consecutive days during week 1. […] On day 4, three hours after oral dosing with vehicle or drug, the rabbits were anesthetized and measured for the vehicle's effect on CEA vessel lumen as described above. […] On the 4th day of week 2, rabbit CEA diameter changes in response to test compounds were assessed with infusion of norepinephrine followed by acetylcholine as described above. […]

CC(=O)OCC[N+](C)(C)C [acetylcholine]
effect of acetylcholine infusion alone on baseline CEA diameter and area (anesthetized rabbit, doses up to 56 μg/min, no preconstriction): not changed | effect of acetylcholine infusion on norepinephrine-preconstricted CEA lumen (escalating doses about 10, 17, 30 and 56 μg/min with norepinephrine infusion): restored the vessel lumen to the baseline diameter and area
